Assay results: patent US20210346354A1, “MACROPINOCYTOSIS IN CANCER” (Memorial Sloan-Kettering Cancer Center, priority 2015, published 2021)
At least one structure is not confirmed: it was looked up by name or label, or the drawing left a doubt.

Test system: pancreatic tumors of KPC mice
Assay: Rapamycin treatment of KPC mice with established pancreatic tumors (Ki-67 immunohistochemistry, 3d ultrasound)
Format: in vivo, mouse
Details: 5 mg/kg Rapamune daily oral gavage

**Q.** With `CO[C@H]1C[C@@H]2CC[C@@H](C)[C@@](O)(O2)C(=O)C(=O)N2CCCC[C@H]2C(=O)O[C@H]([C@H](C)C[C@@H]2CC[C@@H](O)[C@H](OC)C2)CC(=O)[C@H](C)/C=C(\C)[C@@H](O)[C@@H](OC)C(=O)[C@H](C)C[C@H](C)/C=C/C=C/C=C/1C` [rapamycin] as the compound, how does the “tumor growth (volume increase by 3d ultrasound)” value read?
**A.** significantly accelerated tumor growth

**Q.** What about the “fraction of Ki-67-positive cells in outer, vascularized tumor regions” value (8 days) of the same compound?
**A.** decreased

**Q.** What about the “number of Ki-67-positive cells in interior, hypovascularized (CD31-negative) tumor regions” value (8 days) of the same compound?
**A.** striking increase

**Q.** And the “phospho-S6 in outer, vascularized tumor regions” value (8 days)?
**A.** concomitant decrease in phospho-S6
